PubChem BioAssay AID1671195, Yale University, 2021

Purpose: 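Regulators of LDL receptor activity judged by labelled LDL uptake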 (primary screen)
Cell system: human Huh7 hepatoma cells
Reagent: siRNA pool against human genes, 18 nM
Time to read-out: about 2 to 2.5 days of knockdown, then 8 h LDL uptake
Treatment: DiI-labelled LDL at 30 µg/ml for 8 h, in lipoprotein-deficient serum medium
Detection: 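Fluorescent LDL signal imaged in cells, scaled to the plate median, robust z-score for each replicate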
Direction: robust z-score: higher = more LDL uptake after knockdown
Active means: 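a gene counts as active if at least two replicate z-scores exceed ±2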
In all, the deposit lists about 22,000 reagents; this is a part drawn at random. About 1,510 of all reagents (6.9%) count as active. 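Active includes knockdowns raising or lowering LDL uptake; positive z-scores mean more uptake, negative mean less.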

After knock-down of LOC440536 (retired record), the record shows robust z-score, replicate 1 = 1.87; robust z-score, replicate 2 = 1.93; robust z-score, replicate 3 = 2.34; inactive.
After knock-down of PLSCR5, the record shows robust z-score, replicate 1 = -0.0298; robust z-score, replicate 2 = -0.162; robust z-score, replicate 3 = -0.143; inactive.
After knock-down of LOC388897 (retired record) the results were robust z-score, replicate 1 = -0.704; robust z-score, replicate 2 = -0.684; robust z-score, replicate 3 = -0.995; inactive.
After knock-down of ANGEL2, the screen gave robust z-score, replicate 1 = 0.636; robust z-score, replicate 2 = 0.348; robust z-score, replicate 3 = 0.185; inactive.
With knock-down of SELENOM the results were robust z-score, replicate 1 = 2.79; robust z-score, replicate 2 = 1.31; robust z-score, replicate 3 = 2.62; active.
Against CDKN1B the deposit lists robust z-score, replicate 1 = -1.92; robust z-score, replicate 2 = -1.8; robust z-score, replicate 3 = -0.195; inactive.
With knock-down of CTNND2, the screen gave robust z-score, replicate 1 = -0.797; robust z-score, replicate 2 = 0.588; robust z-score, replicate 3 = 0.612; inactive.
With knock-down of SLC25A32, the screen gave robust z-score, replicate 1 = 0.643; robust z-score, replicate 2 = 0.432; robust z-score, replicate 3 = 0.559; inactive.

Look-ups from the entries so far.
Under “robust z-score, replicate 1”, PLSCR5 shows -0.0298
Entry for LOC388897 (retired record) in “robust z-score, replicate 2”: -0.684

The list goes on:
Silencing of LUC7L3 came out at: robust z-score, replicate 1 = 0.691; robust z-score, replicate 2 = 0.635; robust z-score, replicate 3 = 0.397; inactive.
Silencing of LOC441621 (retired record) gave: robust z-score, replicate 1 = 0.905; robust z-score, replicate 2 = 0.905; robust z-score, replicate 3 = 1.07; inactive.
For UBE2V2, the entry reads robust z-score, replicate 1 = -0.779; robust z-score, replicate 2 = -0.49; robust z-score, replicate 3 = -1.64; inactive.
After knock-down of GPR37L1, the record shows robust z-score, replicate 1 = 1.62; robust z-score, replicate 2 = 0.83; robust z-score, replicate 3 = 0.955; inactive.
